Source: paper PMC12040169 (PLOS Biology, 2025)
Some of the results follow.

system: T1, CTL2-GFP (C. trachomatis L2/434/Bu, GFP-expressing); set-up: species or system HeLa; Intracellular C. trachomatis growth in HeLa cells, bulk GFP fluorescence relative to DMSO; settings: bulk GFP, single well; 28.5 h, 10 µM; inhibitor
T1 construct: L2/434/Bu, GFP-expressing

SMILES	% of control remaining [%]
Cc1noc(C)c1Cc1ccc(C(=O)Nc2nc3ccccc3n2C)o1 [CBK299839]	133.543
O=C1COc2ccccc2C/C=C/C[C@H]2CN(C(=O)CN3CCN(CCO)CC3)CC[C@H]2N1 [CBK292146]	97.3713
Cc1nc(CN2CCC3(CC2)CN(S(C)(=O)=O)c2ccccc23)cs1 [CBK126687]	104.018
Cc1noc(C)c1S(=O)(=O)N1CCOCC1c1cccc(F)c1 (stereo not shown) [CBK304171]	124.067
COc1cc(CN2CCC3(CC2)CN(C(=O)CO)c2ccccc23)cc(OC)c1OC [CBK131494]	89.6813
O=C(O)C[C@]1(C(=O)Nc2ccc(F)cc2)CC(/C=C/c2ccccc2)=NO1 [CBK286608]	146.661
Cn1ncnc1COc1ccc(S(=O)(=O)NC2CCCC2)cc1 [CBK306305]	122.668
CC(C)(C)c1ccc(-c2cnc3ncccc3c2N)cc1 [CBK083684]	150.877
O=C(O)c1cccc(CSc2nnc(Cc3ccccc3)[nH]2)c1 [CBK268029]	122.19
O=C(NCC1CCCO1)c1sc2ccccc2c1Cl (stereo not shown) [CBK058604]	114.174
CC(C)(C)CC(=O)N1C[C@@H]2C[C@H](C1)c1ccc(NS(=O)(=O)c3cccs3)c(=O)n1C2 [CBK288708]	116.821
O=C(NC(Cc1cccs1)c1nccs1)C1CCOC1 (stereo not shown) [CBK285054]	155.836
CCOC(=O)C(C)NC(=O)c1ccc2nc(C)sc2c1 (stereo not shown) [CBK282508]	121.514
CSCCC(NC(=O)c1ccc(S(=O)(=O)N2CC(C)OC(C)C2)cc1)C(=O)O (stereo not shown) [CBK297101]	116.217
FC(F)(F)c1csc(Nc2ccc(Cl)c(Cl)c2)n1 [CBK019093]	53.7174
Cc1ccccc1OCCCNCCN1CCOCC1 [CBK268590C]	113.614
CC1CCCN(C(=O)c2cc(S(=O)(=O)N3CCOCC3)ccc2Cl)C1 (stereo not shown) [CBK305012]	112.786
Cc1noc(C)c1C(=O)N1CCc2ccccc2C1 [CBK200333]	116.618
CCc1cc2c(=O)c(-c3nc(C)cs3)c(C)oc2cc1OCc1ccc([N+](=O)[O-])cc1 [CBK268305]	108.79
O=C(O)C1CCN(C(=O)Cc2c[nH]c3ccccc23)CC1 [CBK202747]	104.223
CC(=O)N1CCN(Cc2oc(C)cc(=O)c2O)CC1 [CBK288383]	127.814
COc1ccc(CN2CCN(C(=O)NS(=O)(=O)c3ccc(C)cc3)CC2)cc1F [CBK297156]	92.7682
O=C(O)CCc1nc2ccccc2n1C1CCCCC1 [CBK286961]	118.298
COc1ccc([C@@]23CC[C@@H](NC(=O)Nc4cccc(Br)c4)C[C@@H]2N(C)CC3)cc1OC [CBK038225T]	99.3872
CNC(=O)c1sc2ccccc2c1C1CCN(Cc2cnn(-c3ccc(F)cc3)c2)C1 (stereo not shown) [CBK285882]	137.364
CC(C)(C)NC(=O)Cn1cnc2c(cnn2-c2ccccc2)c1=O [CBK269586]	99.2994

SMILES	% of control remaining [%]
O=C(Nc1ccccc1Cl)N1CCN(CCN2CCOCC2)CC1 [CBK155824]	100
COc1ccc([C@]23CC[C@H](NC(=O)c4ccc(C(F)(F)F)c(F)c4)C[C@H]2CN(C)C3)cc1OC [CBK082743T]	122.288
COc1ccc(C)cc1N(CC(=O)Nc1ccc(F)c(F)c1)S(C)(=O)=O [CBK267006]	155.187
COCCNC(=O)c1ccc(-c2ccccc2OC)nc1N(C)C [CBK106052]	121.419
COc1ccc(C(=O)C2=C(O)C(=O)N(CCCN(C)C)C2c2ccncc2)cc1C (stereo not shown) [CBK264871]	109.3
O=C(/C=C/c1cccc([N+](=O)[O-])c1)Nc1ccc(Cl)c(-c2nc3ccccc3o2)c1 [CBK264610]	121.906
CCOc1nc2c(c(C(F)(F)F)n1)CC(C)C/C2=C\c1ccccc1 (stereo not shown) [CBK265800]	116.308
C=CCn1c(C)c(C)n2c3c(=O)n(CCN4CCOCC4)c(=O)n(C)c3nc12 [CBK269778]	132.548
CN(c1cccc(C#N)c1)C1CCN(c2ncnc3c2cnn3C)C1 (stereo not shown) [CBK304720]	121.587
CCCn1c(SCc2nc(N)nc(Nc3ccccc3CC)n2)n[nH]c1=O [CBK296966]	135.426
C[C@@H]1CN(C(=O)OCCc2cccs2)C[C@H](C)O1 [CBK200416]	54.7335
CN1CCN(C(=S)c2ccc(OCC(=O)Nc3cccc(C(F)(F)F)c3)cc2)CC1 [CBK266826]	108.582
O=C(O)c1[nH]c2ccccc2c1/C=N/Cc1ccccc1Cl [CBK294456]	148.719
CN(CCCC(=O)O)c1nc(-c2ccc(Br)cc2)cs1 [CBK299834]	110.681
Clc1ccc(OCc2nc3ccccc3n2CCOc2ccccc2)c(Cl)c1 [CBK264728]	116.666
COC(=O)c1ccc(/C=N/N=C2\NC(=O)C(CC(=O)Nc3ccccc3)S2)cc1 (stereo not shown) [CBK264483]	137.661
CC(=O)N1CCc2c(sc(NC(=O)c3ccc(N(C)C)cc3)c2C#N)C1 [CBK304333]	114.206
CS(=O)(=O)N1CC2(CCN(Cc3ccc(OC(F)(F)F)cc3)CC2)c2ccccc21 [CBK126668]	94.8439
COc1ccc2c(c1)C1(CC(=O)N(C)C1=O)C(=O)N2CCCC(=O)O (stereo not shown) [CBK076109]	148.017
COCCN(C)S(=O)(=O)c1cc(C)c(Cl)cc1C [CBK043867]	117.462
COc1ccc(S(=O)(=O)N(Cc2cc(F)cc(F)c2)C2CCNCC2)cc1 [CBK165292T]	126.289
O=C1NC2(CCc3ccccc31)CCN(Cc1ccncc1)C2 (stereo not shown) [CBK284610]	109.161
OCCN1CCN(CC(O)COCc2ccccc2)CC1 (stereo not shown) [CBK278262C]	96.8384
CC(C)Cc1ccc(-c2cc(NCCc3ccccn3)ncn2)cc1 [CBK091088]	126.516
O=C1/C(=N\Nc2ccc([N+](=O)[O-])cc2[N+](=O)[O-])c2cc(Br)ccc2N1CN1CCCCC1 [CBK260927]	110.817
O=C(O)c1ccc2c(c1)C(=O)N(CCCN1CCOCC1)C2=O [CBK269245]	160.015

3 of the compounds above, in CSV form:
SMILES,% of control remaining [%]
Cc1noc(C)c1S(=O)(=O)N1CCOCC1c1cccc(F)c1 (stereo not shown) [CBK304171],124.067
CC(C)(C)c1ccc(-c2cnc3ncccc3c2N)cc1 [CBK083684],150.877
O=C1NC2(CCc3ccccc31)CCN(Cc1ccncc1)C2 (stereo not shown) [CBK284610],109.161

More entries.

SMILES	% of control remaining [%]
CC(=O)N1CCN(C(=O)NC(C)C)C[C@@H]1C(=O)N[C@@H](CC1CCCCC1)C(N)=O [CBK289633]	109.148
O=C(NCCc1c[nH]cn1)N1CCN(Cc2ccccc2)CC1 [CBK155629]	108.312
O=C(c1ccc(-c2cncc(-c3ccc(O)cc3)n2)cc1Cl)N1CCOCC1 [CBK123790]	96.2531
CCC(CN1CCN(C)CC1)NC(=O)C1(c2cccc(F)c2)CC1 (stereo not shown) [CBK282786]	89.4657
COc1ccccc1-n1nc(-c2ccncc2)nc1C1CCOCC1 [CBK307229]	95.5466
O=C(O)c1ccc2c(c1)C(=O)N(c1cccc(/C=C/C(=O)c3cccc(N4C(=O)c5ccc(C(=O)O)cc5C4=O)c3)c1)C2=O [CBK261178]	120.76
CC(C)C(=O)Nc1ccc2[nH]cc(C(C(=O)O)N3CCN(c4ccccc4)CC3)c2c1 (stereo not shown) [CBK286645]	120.653
CN(CCN(C)C(=O)c1cc2sccc2[nH]1)CC(F)F [CBK306014]	115.521
O=C(Nc1ccc(F)cc1)c1cccc(NS(=O)(=O)c2cc(Br)c(Cl)s2)c1 [CBK050410]	158.436
CCOC(=O)c1[nH]c(=O)[nH]c1CSc1ccccn1 [CBK027725]	124.482
CCOC(=O)c1[nH]c2ccccc2c1NC(=O)COc1ccc(Cl)cc1Cl [CBK160134]	122.094
Cc1ccc(NC(=O)CSc2cnn[nH]2)cc1 [CBK270136]	116.819
O=C1NCCNC(=O)C2(C/C=C/COc3ccccc31)CCCN(Cc1cscn1)C2 (stereo not shown) [CBK292125]	110.203
O=C(c1ccco1)N1CCC(c2onc3c2CCCCC3)CC1 [CBK284486]	119.502
CN1C[C@H](C(N)=O)[C@@H](c2ccc(CN(C)C(=O)c3cccc(Oc4ccccc4)c3)cc2)C1 [CBK285572]	104.29
COc1ccc(C(=O)N2CC[C@H]3CC(=O)N(CCN4CCNC4=O)CC[C@H]3C2)cc1 [CBK288795]	116.475
Cc1c(Cl)cccc1S(=O)(=O)NC1=NC(=O)C(CC(=O)Nc2ccccc2Cl)S1 (stereo not shown) [CBK200043]	104.522
CCn1cc(S(=O)(=O)N2CCN(c3cccc(C(F)(F)F)c3)CC2)cn1 [CBK270328]	122.355
O=C(CSc1ncnc2sc3c(c12)CCC3)Nc1nsc(-c2ccc(Cl)cc2)n1 [CBK266484]	77.355
CC(C)(CNC(=O)c1ccc(=O)n(CC(=O)NC2CCCCC2)c1)c1ccccc1F [CBK285983]	132.859
CN(C)c1nc(NCc2ccccc2)nc(SCC(=O)Nc2ccc(Cl)c(Cl)c2)n1 [CBK267289]	113.696
COc1ccc(CCNC(=O)N2CCCC(C(=O)O)C2)cc1 (stereo not shown) [CBK161367]	139.65
O=c1[nH]c2ncc(-c3ccoc3)nc2n1C1CCOCC1 [CBK064973]	114.982
CC(=O)Nc1ccc(C(=O)CSc2nc(-c3ccccc3)c(-c3ccccc3)o2)cc1 [CBK266168]	144.722
